At least one compound was matched to its structure with a doubt left.
System: HNSCC patient-derived NK cells
Experiment: NK cell perforin ELISA after co-culture with Cal27 cells
Assay type: cell-based, Human
Conditions: Cal27 co-culture 4 hrs
Description: For NK cell perforin assays, NK cells were treated with drug for 24 hrs, washed, and co-cultured with Cal27 cells for 4 hours. Supernatant was then collected, snap frozen in liquid nitrogen and stored at −80 until thawed for single use. For patient samples, undiluted plasma was added directly to ELISA. ELISA kit for perforin was obtained from ABCAM. ELISA was performed according to the manufacturer's protocol. […] 50 uL stop solution of in house 2N […] was added to stop reaction before reading at […] wavelength on plate reader. […]
HNSCC patient-derived NK cells were treated with exogenous CXCL1 and an inhibitor of the CXCL1 receptor, CXCR2, or metformin. […] Cells were analyzed by flow and analyzed by one way ANOVA. n=8.
Specifically, HNSCC NK cells were treated with vehicle, metformin, or 10 uM AMPK inhibitor (Dosomorphin) for 24 hrs, washed, and co-cultured with Cal27 cells for 4 hrs. Supernatant was collected for ELISA and analyzed by one way ANOVA. n=5.
HNSCC patient-derived NK cells were treated with vehicle, metformin, 10 uM mTOR inhibitor (Everolimus), or 10 uM mTOR activator (MHY1485) for 24 hrs, washed, and co-cultured with Cal27 cells for 4 hrs. Supernatant was collected for ELISA and analyzed by one way ANOVA. n=5. […]

Row | Compound | perforin (10 uM pSTAT1 inhibitor 24 hrs, FIG. 6) | perforin (10 uM AMPK inhibitor 24 hrs, alone or with metformin, n=5, FIG. 4)
1 | Nc1nc(F)nc2c1ncn2[C@@H]1O[C@H](CO)[C@@H](O)[C@@H]1O [Fludarabine] | lower perforin | –
2 | c1cc(-c2cnn3cc(-c4ccc(OCCN5CCCCC5)cc4)cnc23)ccn1 [dorsomorphin] | – | did not change basal perforin or perforin increased by metformin

Source: patent US20260102492A1, “Inhibition of Natural Killer Cell Cytoxocity” (University of Cincinnati, priority 2022, published 2026)
